Data source: PubChem BioAssay AID504764 (Drosophila RNAi Screening Center, 2011)
Test: 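Genes whose knock-down alters Notch-dependent transcription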 (primary screen). Cell system: Drosophila Kc167 cells. Knock-down reagent: long dsRNA against Drosophila genes. Time to read-out: about 5 days (4 days dsRNA, then 24 h after transfection). Treatment: transfection of constitutively active membrane-tethered Notch lacking the extracellular domain, read 24 h later. Read-out: 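Firefly luciferase from an E(spl)m3 reporter with active Notch, plus control-promoter and uninduced reporter wells for normalisation; unnormalised counts, duplicate wells a and b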. Reading the numbers: induced reporter light, run 1, well a and induced reporter light, run 1, well b: higher = more light from the Notch target reporter with active Notch; control promoter light, run 1, well a and control promoter light, run 1, well b: higher = more light from the viral control promoter (cell number, transfection, viability); uninduced reporter light, run 1, well a: higher = more light from the Notch target reporter without active Notch. Hit rule: 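Hit if the duplicate-averaged log2 ratio of induced to control-promoter light gives a plate-wise z beyond ±2, or induced to uninduced beyond ±1.8; weak-control or discordant-duplicate wells dropped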. Meaning of the calls: active = modifier hit (raised or lowered Notch signal); inactive = not a hit.
In all, the deposit lists about 22,000 reagents; below is a random part of those that have a named target and a result. Of all reagents, 403 (1.9%) were called active. 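Unnormalised raw counts per well; ratio z-scores behind the hit calls and whether each hit raises or lowers signal are not deposited.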 Entries without a mark were called inactive. Names joined by + are all predicted targets of the reagent. The record does not give: the amount of reagent.

no.	gene knocked down	amplicon	induced reporter light, run 1, well a	induced reporter light, run 1, well b	control promoter light, run 1, well a	control promoter light, run 1, well b	uninduced reporter light, run 1, well a
1	CASK	DRSC14588	1.75e5	1.58e5	1.68e5	1.52e5	11215
2	CASK	DRSC16597	1.88e5	1.84e5	2.24e5	2.02e5	15435
3	CASK	DRSC16598	1.48e5	1.32e5	1.72e5	1.63e5	10560
4	CG3803	DRSC04420	1.85e5	1.85e5	1.63e5	1.50e5	12055
5	Fer1HCH	DRSC16671	1.24e5	1.74e5	1.93e5	1.74e5	8678
6	CG5043	DRSC02805	1.10e5	1.14e5	1.49e5	1.61e5	9885
7	CG11109	DRSC11633	1.24e5	1.49e5	96480	1.25e5	8470
8	CG43980	DRSC11500	2.11e5	2.23e5	2.09e5	2.22e5	17542
9	CG43980	DRSC11646	33515	23900	20350	26475	1970
10	CG12608	DRSC19472	1.89e5	2.10e5	2.71e5	2.68e5	13385
11	CG9717	DRSC16543	1.28e5	1.51e5	1.87e5	1.83e5	12265
12	CG18179	DRSC10303	1.71e5	1.26e5	1.34e5	1.35e5	12970
13	RpL7	DRSC03417	11920	11825	9985	8485	1235
14	Pka-R2	DRSC07509	1.92e5	2.28e5	2.32e5	2.45e5	19355
15	l(3)87Df	DRSC16982	2.45e5	2.33e5	1.95e5	2.08e5	18560
16	CG30394	DRSC04074	50405	39910	40625	33695	3210
17	CG30394	DRSC04260	64535	40330	47320	35980	3135
18	inv	DRSC07633	1.44e5	1.52e5	2.05e5	1.94e5	14120
19	pon	DRSC18823	1.56e5	1.70e5	4.01e5	2.80e5	13010
20	CG12025	DRSC08230	95070	1.65e5	2.36e5	1.61e5	7285
21	Ada1-1 + Ada1-2	DRSC01220	93125	1.03e5	1.32e5	1.20e5	9650
22	Ada1-1 + Ada1-2	DRSC01222	74130	57875	59640	63470	7475
23	HmgD	DRSC04619	1.46e5	1.67e5	1.19e5	1.26e5	11870
24	CG10139	DRSC05972	1.64e5	1.80e5	1.79e5	1.62e5	14995
25	MCTS1	DRSC18393	1.87e5	1.79e5	2.39e5	2.00e5	14950
26	Df31	DRSC03738	1.71e5	1.61e5	1.62e5	1.89e5	16805
27	CG15098	DRSC06527	42220	32155	32910	39950	3875
28	CG42809 + CG42810	DRSC02532	95500	1.08e5	1.42e5	1.17e5	10155
29	CG42809 + CG42810	DRSC02533	1.27e5	1.37e5	1.53e5	1.57e5	9985
30	ich	DRSC12715	1.61e5	1.23e5	1.57e5	1.71e5	10625
31	ich	DRSC14448	40120	52050	47455	28515	4492
32	Atg7	DRSC05741	1.17e5	1.04e5	1.87e5	1.25e5	7430
33	Atg7	DRSC06937	1.18e5	1.11e5	1.30e5	1.12e5	8678
34	CG10510	DRSC11614	1.48e5	1.67e5	1.25e5	1.58e5	11655

4 entries already listed, arranged by “control promoter light, run 1, well b”, low to high.
gene knocked down	amplicon	induced reporter light, run 1, well a	induced reporter light, run 1, well b	control promoter light, run 1, well a	control promoter light, run 1, well b	uninduced reporter light, run 1, well a
CG43980	DRSC11646	33515	23900	20350	26475	1970
CG11109	DRSC11633	1.24e5	1.49e5	96480	1.25e5	8470
CG43980	DRSC11500	2.11e5	2.23e5	2.09e5	2.22e5	17542
CG12608	DRSC19472	1.89e5	2.10e5	2.71e5	2.68e5	13385
